Results from patent US20220184120A1.
These are yes or no findings as the source states them, for the method shown. Some entries that bind do so weakly or less than the wild type.

Protein sequences, listed by entry. Tags and fused reporters are not part of them. Residues count along the entry.
UniProt P15941, residues 1110-1255: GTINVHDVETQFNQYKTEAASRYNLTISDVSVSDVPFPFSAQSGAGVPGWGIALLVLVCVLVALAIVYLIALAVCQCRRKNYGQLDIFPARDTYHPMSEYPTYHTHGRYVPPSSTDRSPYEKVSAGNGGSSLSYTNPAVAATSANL

Key:
[1] = target: MUC1 transmembrane cleavage product after cleavage of full-length MUC1 by MMP9 (UniProt P15941); test: flow cytometry (recap in IHC legend)
[2] = target: MUC1* (cleaved MUC1) as it occurs on MUC1/MUC1* positive cancer cell lines (human) (UniProt P15941); test: flow cytometry, ZR-75-1 cells, Anti-Penta-His detection (FIG. 4A-4C)
[3] = target: MUC1* (cleaved MUC1) as it occurs on MUC1/MUC1* positive cancer cell lines (human) (UniProt P15941); test: flow cytometry (FIG. 4A-4C)
[4] = target: MUC1 transmembrane cleavage product after cleavage of full-length MUC1 by MMP9 (UniProt P15941); test: flow cytometry, HCT-MUC1-18 cells + MMP9 (FIG. 37C)
[5] = target: MUC1 transmembrane cleavage product after cleavage of full-length MUC1 by MMP9 (UniProt P15941); test: flow cytometry (FIG. 37)
[6] = target: MUC1 transmembrane cleavage product after cleavage of full-length MUC1 by MMP9 (UniProt P15941); test: flow cytometry (FIG. 37 and FIG. 75)
[7] = target: MUC1* (cleaved MUC1) as it occurs on MUC1/MUC1* positive cancer cell lines (human) (UniProt P15941); test: flow cytometry
[8] = target: MUC1 transmembrane cleavage product after cleavage of full-length MUC1 by MMP9 (UniProt P15941); test: immunofluorescence / flow cytometry, HCT-MUC1-41TR cells + MMP9 (FIG. 37)
[9] = target: MUC1* (cleaved MUC1) as it occurs on MUC1/MUC1* positive cancer cell lines (human) (UniProt P15941); test: flow cytometry, T47D, 1500, NCI-H292, NCI-H1975, SKOV-3, HPAF-II, Capan-1, DU145 (FIG. 77); Capan-1 and DU145 recognized less well
[10] = target: MUC1* (cleaved MUC1) as it occurs on MUC1/MUC1* positive cancer cell lines (human) (UniProt P15941); test: flow cytometry, MFI (FIG. 76-77); NCI-H1975 more strongly than NCI-H292, HPAF-II better than Capan-1 or DU145
[11] = target: MUC1* (cleaved MUC1) as it occurs on MUC1/MUC1* positive cancer cell lines (human) (UniProt P15941); test: flow cytometry (FIG. 4F)
[12] = target: MUC1* (cleaved MUC1) as it occurs on MUC1/MUC1* positive cancer cell lines (human) (UniProt P15941); test: flow cytometry, ZR-75-1 cells (FIG. 4F)

Measured: binding

B1: 3C2B1 mouse monoclonal antibody (antibody, V domains shown)
VH: EVMLVESGGGLVKPGGSLKLSCAASGITFSTYTMSWVRQTPEKRLEWVATISTGGDKTYYSDSVKGRFTISRDNAKNNLYLQMSSLRSEDTALYYCARGTTAMYYYAMDYWGQGTSVTVSS
VL: DIVLTQSPASLAVSLGQRATISCRASKSISTSDYNYIHWYQQKPGQPPKLLIYLASNLESGVPARFSGSGSGTDFTLNIHPVEEEDAATYYCQHSRELPLTFGAGTKLELK
binds: [1]

B2: humanized MN-C2 scFv (scFv, not shown: small tags and cut ends)
scFv: EVQLVESGGGLVKPGGSLRLSCAASGFTFSGYAMSWVRQAPGKGLEWVSTISSGGTYIYYPDSVKGRFTISRDNAKNSLYLQMNSLRAEDTAVYYCARLGGDNYYEYFDVWGKGTTVTVSSGGGGSGGGGSGGGGSDIVLTQSPASLAVSPGQRATITCRASKSVSTSGYSYMHWYQQKPGQPPKLLIYLASNLESGVPARFSGSGSGTDFTLTINPVEANDTANYYCQHSRELPFTFGGGTKVEIKRT
binds: [2] | [1] | [3]

B3: MN-C2 mouse monoclonal anti-MUC1* antibody (antibody, V domains shown)
VH: EVQLEESGGGLVKPGGSLKLSCAASGFTFSGYAMSWVRQTPEKRLEWVATISSGGTYIYYPDSVKGRFTISRDNAKNTLYLQMSSLRSEDTAMYYCARLGGDNYYEYFDVWGAGTTVTVSS
VL: DIVITQSTASLGVSLGQRATISCRASKSVSTSGYSYMHWYQQRPGQPPKLLIYLASNLESGVPARFSGSGSGTDFTLNIHPVEEEDAATYYCQHSRELPFTFGGGTKLEIKR
binds: [4] | [5] | [6] | [7] | [8] | [9] | [10]

B4: MN-E6 mouse monoclonal anti-MUC1* antibody (antibody, V domains shown)
VH: EVKVVESGGDLVKPGGSLKLSCVVSGFTFSRYGMSWVRQTPGKRLEWVATISGGGTYIYYPDSVKGRFTISRDNAKNTLYLQMSSLKSEDTAMYHCTRDNYGRNYDYGMDYWGQGTSVTVSS
VL: QIVLTQSPAIMSASPGEEVTLTCSATSSVSYIHWFQQRPGTSPKLWIYSTSNLASGVPVRFSGSGYGTSYSLTISRMEAEDAATYYCQQRSSSPFTFGSGTKLEIK
binds: [6] | [1] | [11] | [12]
